{"source": "PubChem BioAssay AID1259424 – University of Nebraska Medical Center | 2018", "aim": "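Rank knockdowns across the genome by resemblance to the KSR1 depletion profile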 (primary screen)", "cells": "human HCT116 colon cancer cells", "reagents": "siRNA pool against human genes, 50 nM", "measurement": "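Log2 levels of six mRNAs (branched-DNA multiplex), adjusted by two reference genes and the non-targeting median, then scored against the average KSR1 knockdown pattern as Pearson r and euclidean distance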", "scale": "mean correlation with KSR1 profile: higher = expression change more like KSR1 knockdown", "note": "The whole screen tested about 14,000 reagents; shown is a random part of them. 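Higher correlation or smaller distance means closer resemblance to KSR1 loss; control wells, including KSR1 knockdowns, recur on many plates.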 Further read-outs or replicates are left out here. No sequences are given here. Not given: the time to read-out."}
{"target":"TRAF5","PubChem SID":"SID363995587","mean correlation with KSR1 profile":0.382}
{"target":"CDH1","PubChem SID":"SID363995346","mean correlation with KSR1 profile":0.884}
{"target":"KCNF1","PubChem SID":"SID363993436","mean correlation with KSR1 profile":-0.418}
{"target":"SUCLG1","PubChem SID":"SID363994910","mean correlation with KSR1 profile":0.449}
{"target":"UNK","PubChem SID":"SID364005093","mean correlation with KSR1 profile":-0.0791}
{"target":"CYP4B1","PubChem SID":"SID363992069","mean correlation with KSR1 profile":-0.382}
{"target":"TUT7","PubChem SID":"SID364005483","mean correlation with KSR1 profile":0.529}
{"target":"RNPS1","PubChem SID":"SID363997491","mean correlation with KSR1 profile":0.742}
{"target":"DYRK2","PubChem SID":"SID363994663","mean correlation with KSR1 profile":0.348}
{"target":"ATP13A2","PubChem SID":"SID364002318","mean correlation with KSR1 profile":0.158}

In a second layout: 5 of the entries above
target	PubChem SID	mean correlation with KSR1 profile
CYP4B1	SID363992069	-0.382
TUT7	SID364005483	0.529
RNPS1	SID363997491	0.742
DYRK2	SID363994663	0.348
ATP13A2	SID364002318	0.158

The list goes on:
{"target":"ERBB4","PubChem SID":"SID363996157","mean correlation with KSR1 profile":0.459}
{"target":"F2R","PubChem SID":"SID363993204","mean correlation with KSR1 profile":0.617}
{"target":"RNF115","PubChem SID":"SID363998868","mean correlation with KSR1 profile":-0.504}
{"target":"GNAI3","PubChem SID":"SID363997293","mean correlation with KSR1 profile":0.804}
{"target":"RNF103","PubChem SID":"SID363996558","mean correlation with KSR1 profile":0.256}
{"target":"NME6","PubChem SID":"SID363996671","mean correlation with KSR1 profile":0.0966}
{"target":"EVI2B","PubChem SID":"SID363997292","mean correlation with KSR1 profile":0.0281}
{"target":"TDRD7","PubChem SID":"SID363998723","mean correlation with KSR1 profile":-0.167}
{"target":"CD40LG","PubChem SID":"SID363991411","mean correlation with KSR1 profile":-0.43}
{"target":"UBR5","PubChem SID":"SID363999706","mean correlation with KSR1 profile":0.145}
{"target":"MACROH2A2","PubChem SID":"SID364001148","mean correlation with KSR1 profile":-0.394}
{"target":"KCNT1","PubChem SID":"SID364005044","mean correlation with KSR1 profile":0.0386}
{"target":"SIGLEC7","PubChem SID":"SID363998807","mean correlation with KSR1 profile":-0.199}
{"target":"COLEC11","PubChem SID":"SID364002689","mean correlation with KSR1 profile":-0.571}
{"target":"PCYT2","PubChem SID":"SID363994017","mean correlation with KSR1 profile":0.158}
{"target":"GSTA2","PubChem SID":"SID363992133","mean correlation with KSR1 profile":-0.379}
{"target":"PIP4K2C","PubChem SID":"SID364003050","mean correlation with KSR1 profile":0.951}
{"target":"DMP1","PubChem SID":"SID363995390","mean correlation with KSR1 profile":-0.639}
